From US20150216182A1, “COMPOSITIONS AND METHODS OF THE ATTRACTION AND REPULSION OF INSECTS” (Olfactor Laboratories, Inc., priority 2012, published 2015)
Some of these results come from one statement about several compounds together.

Tested on: cpA neurons
Experiment: extracellular single-sensillum electrophysiology: inhibition of CO2-responsive (cpA) neuronal activity

| SMILES | inhibitor class of single compound |
| --- | --- |
| CCCCCC(C)=O [OLI0092, methylamylketone] | mild inhibitor (20-40% reduction in neuronal activity as compared to baseline activity of the neuron) |
| CCCCCCC(=O)OC [OLI0091, methyl heptanoate] | mild inhibitor (20-40% reduction in neuronal activity as compared to baseline activity of the neuron) |
